For one assay, the target named is T1, 3xMyc-TRAF2 (A549 cells) (UniProt Q12933).
T1 sequence: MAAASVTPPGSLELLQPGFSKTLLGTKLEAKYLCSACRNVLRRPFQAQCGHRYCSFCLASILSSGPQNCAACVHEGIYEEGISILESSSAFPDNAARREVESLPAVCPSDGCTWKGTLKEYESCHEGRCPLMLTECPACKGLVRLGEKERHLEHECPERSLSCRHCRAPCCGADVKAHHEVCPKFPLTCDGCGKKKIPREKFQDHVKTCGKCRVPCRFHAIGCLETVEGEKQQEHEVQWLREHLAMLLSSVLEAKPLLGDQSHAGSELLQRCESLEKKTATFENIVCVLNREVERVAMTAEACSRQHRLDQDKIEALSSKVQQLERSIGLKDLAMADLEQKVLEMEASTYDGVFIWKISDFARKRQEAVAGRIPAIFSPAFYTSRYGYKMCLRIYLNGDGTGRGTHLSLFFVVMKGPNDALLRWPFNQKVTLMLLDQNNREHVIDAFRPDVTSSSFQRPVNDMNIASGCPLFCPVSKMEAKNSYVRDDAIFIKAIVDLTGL
Description: co-IP; A549 cells with HA-tagged KEAP1; Flag IP of Flag-RIPK1 or Myc IP of Myc-TRAF2, blot for KEAP1 (Fig. 4B, C, F, G); RIPA lysates, antibody-conjugated magnetic beads.

Protein sequences, listed by entry. Tags and fused reporters are not part of them. Lines headed by an entry give the natural chain unless they say otherwise; changes in a name come on top.
UniProt Q13546: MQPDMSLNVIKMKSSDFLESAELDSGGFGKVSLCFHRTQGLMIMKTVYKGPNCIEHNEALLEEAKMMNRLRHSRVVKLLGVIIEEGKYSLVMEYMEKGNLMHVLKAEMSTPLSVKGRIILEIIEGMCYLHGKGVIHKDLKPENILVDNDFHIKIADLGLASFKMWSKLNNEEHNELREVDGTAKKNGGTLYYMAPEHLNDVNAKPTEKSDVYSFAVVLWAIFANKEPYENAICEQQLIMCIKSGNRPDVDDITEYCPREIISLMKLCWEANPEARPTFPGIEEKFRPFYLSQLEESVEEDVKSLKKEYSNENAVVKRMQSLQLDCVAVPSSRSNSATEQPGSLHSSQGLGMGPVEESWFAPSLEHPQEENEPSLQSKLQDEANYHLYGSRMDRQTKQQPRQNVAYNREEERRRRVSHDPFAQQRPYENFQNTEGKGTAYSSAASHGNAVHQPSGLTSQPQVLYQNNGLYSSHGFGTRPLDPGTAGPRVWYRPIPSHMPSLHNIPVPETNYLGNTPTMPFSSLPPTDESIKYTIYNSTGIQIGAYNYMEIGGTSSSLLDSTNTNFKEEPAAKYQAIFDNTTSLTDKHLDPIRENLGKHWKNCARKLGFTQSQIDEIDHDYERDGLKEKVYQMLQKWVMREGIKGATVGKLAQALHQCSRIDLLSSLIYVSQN
UniProt Q14145: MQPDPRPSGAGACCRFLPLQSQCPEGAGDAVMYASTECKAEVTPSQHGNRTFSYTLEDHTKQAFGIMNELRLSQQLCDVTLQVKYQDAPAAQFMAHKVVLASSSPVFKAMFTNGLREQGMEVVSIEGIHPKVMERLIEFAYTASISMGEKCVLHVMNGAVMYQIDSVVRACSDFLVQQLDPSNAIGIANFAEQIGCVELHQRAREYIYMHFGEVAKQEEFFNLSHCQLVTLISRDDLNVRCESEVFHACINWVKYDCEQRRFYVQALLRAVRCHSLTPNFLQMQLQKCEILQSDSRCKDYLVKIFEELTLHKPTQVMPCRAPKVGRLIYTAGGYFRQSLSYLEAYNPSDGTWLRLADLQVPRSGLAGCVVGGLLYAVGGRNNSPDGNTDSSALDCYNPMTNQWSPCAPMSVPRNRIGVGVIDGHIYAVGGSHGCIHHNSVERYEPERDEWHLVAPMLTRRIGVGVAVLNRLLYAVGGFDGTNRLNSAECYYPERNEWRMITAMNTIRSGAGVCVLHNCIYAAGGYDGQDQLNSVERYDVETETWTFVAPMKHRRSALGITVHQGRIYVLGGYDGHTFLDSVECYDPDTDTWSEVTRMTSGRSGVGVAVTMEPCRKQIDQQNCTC

Assay [1] addresses Flag-RIPK1 (receptor-interacting protein serine/threonine protein kinase 1) (UniProt Q13546). The description is as above.

No constants are given. Whether binding was seen depends on the method and setting. In cells and extracts the contact can be indirect. Some binding calls cover weakened binding; strength is not graded here. For some of these results: Where a sequence is shown, tags or fusion partners need not be part of it.

Regarding “mCherry-HA-KEAP1-R470C (lentiviral, A549-LV cells) (from UniProt Q14145 1-624)”, the binding result (in the assay with 3xMyc-TRAF2 (A549 cells); in assay [1]) was “binds” throughout.
As to “mCherry-HA-KEAP1-R320Q (lentiviral, A549-LV cells) (from UniProt Q14145 1-624)”, the binding result (in the assay with 3xMyc-TRAF2 (A549 cells); in assay [1]) was “binds” each time.
